Some results were stated once for a whole list of compounds, not compound by compound.
Test system: SCD1
Assay: qPCR of SCD1 expression in PMA-differentiated U937 cells
Type: cell-based, human
Settings: U937 differentiated with PMA 72 h; 10 μM, 6 hours
Method: U937 cells differentiated with PMA for 72 hours were treated with T0901317 (10 μM), 22R—HC (3) or with the tested compound (10 μM). […] (n=3/group). *p<0.05, **p<0.01, ***p<0.001.
LXR agonists induce the expression of target genes, which are involved in cholesterol homeostasis, particularly in the reverse cholesterol transport pathway.43 Indeed, LXR agonists induce the expression of ABCA1 both in macrophages and in many tissues of the periphery such as the intestine.44 Moreover, ABCA1 regulates cholesterol efflux to APOAI acceptors.45 In the liver, LXR activation promotes the biosynthesis of fatty acids, a process also termed as de novo lipogenesis by inducing the expression of the master regulator of hepatic lipogenesis sterol-regulatory element-binding protein 1C (SREBP-1c), as well as several downstream genes in the SREBP-1c pathway, including steroyl CoA desaturase 1 (SCD1) and fatty acid synthase (FASN).43 Therefore, it was investigated, by quantitative PCR (qPCR), the expression of ABCA1, SREBP1c, FASN, and SCD1, by using RNA from monocytic U937 cells (FIG. 3) and from hepatic HepG2 cells (FIG. 4) stimulated with our compounds, the non-steroidal agonist T0901317 or the endogenous ligand 22R—HC (3) as positive controls. […] Then, the induction of genes involved in the lipogenesis using the hepatic cell line HepG2. 43,22 was evaluated. […]
Quantitative Real-Time-PCR. […]

Q: Which SCD1 activation does the source give for `CC[C@H](C(=O)C[C@@H](C)[C@H]1CC[C@H]2[C@@H]3CC=C4C[C@@H](O)CC[C@]4(C)[C@H]3CC[C@]12C)C(C)C` [Compound 25, 3β-Hydroxystigmast-5-ene-23-one] here?
A: below 2 fold
